Data on 1 sequence can be found in article PMC10070494, “WSSV exploits AMPK to activate mTORC2 signaling for proliferation by enhancing aerobic glycolysis”.

For this data set, the system named is rHIF1α DNA-binding domain (Marsupenaeus japonicus). The experiment in a line: EMSA. The following applies: 1 and 3 μg rHIF1α, 0.1 μM probe; Chemiluminescent EMSA Kit (Beyotime), salt and pH not stated; competitor 10 min then biotin probe 20 min at 25 °C; native 6% polyacrylamide gel; recombinant protein; protein details: GST (pGEX-4T-2). On the technique in general: Mobility shift assays separate free from complexed probe on a gel.

For at least one entry, the source does not settle the construct or the ends of the probe.

Turning to “CAAATGACTAGAACGTGCGACATTAGTGAA (double strand) [HK-WT probe]”, the binding result is “binds”.
